Experimental data as given in PubChem BioAssay AID248 (DTP/NCI, 2004).
The list does not hold the whole screen: it is rich in T/C values a quarter to a half above the control, in often repeated tests (any T/C) and in doses without a T/C. Other doses and runs of a compound stand elsewhere. T/C gives the treated animals as a percentage of the vehicle group. Some entries give survivors of the animals treated and no T/C: the source files T/C as zero there, which appears to mark a toxic dose or a test without result, not a measured value. Some survivor counts are full or nearly so, which does not show that the dose was tolerated: survival well below the control is almost never listed, so the zero probably covers shortened survival too. Counts of survivors are from the toxicity check (mostly the fifth day) where no day follows; animals may have died later. Schedule codes are those of the source, read here as Q, the interval in days (D) or hours (H), X, the number of doses. Some schedules carry Z or #; the key to these is not given. Some doses were run more than once; their values stand side by side, smallest first. Where survival is the endpoint, this PubChem deposit counts one and a half times the control or more as active, and values a quarter to a half above the control carry no call in these data; other NCI protocols may use other cut-offs. Some T/C values are followed by the survivors on the day toxicity was checked, most often the fifth; without a count, all were alive then.

Test system: L1210 leukemia ip in BDF1 mice, survival T/C
Experiment: NCI In Vivo Anticancer Drug Screen. Data for tumor model L1210 Leukemia (intraperitoneal) in B6D2F1 (BDF1) mice
Conditions: T/C endpoint: median survival time, higher T/C = longer survival

Which results are given for `CN(C)/N=N/c1nc[nH]c1C(N)=O`?
T/C (dose: 320.0 mg/kg/injection, schedule: Q01DX009 (ip), vehicle: Klucel (hydroxypropylcellulose) (HPC)): 145 % of control; T/C (dose: 320.0 mg/kg/injection, schedule: Q01DX015 (ip), vehicle: Klucel (hydroxypropylcellulose) (HPC)): 135 % of control; T/C (dose: 400.0 mg/kg/injection, schedule: Q01DX009 (ip), vehicle: Klucel (hydroxypropylcellulose) (HPC), evaluated on day 24): 166 % of control; T/C (dose: 400.0 mg/kg/injection, schedule: Q01DX009 (ip), vehicle: Klucel (hydroxypropylcellulose) (HPC), evaluated on day 30): 133 and 138 % of control; T/C (dose: 400.0 mg/kg/injection, schedule: Q01DX009 (ip), vehicle: Klucel (hydroxypropylcellulose) (HPC), evaluated on day 40): 122 % of control; survivor count (dose: 400.0 mg/kg/injection, schedule: Q01DX009 (ip), vehicle: Klucel (hydroxypropylcellulose) (HPC)): 8 of 8; T/C (dose: 400.0 mg/kg/injection, schedule: Q01DX017 (ip), vehicle: steroid suspending solution, evaluated on day 5): 92 % of control; T/C (dose: 400.0 mg/kg/injection, schedule: Q01DX017 (ip), vehicle: steroid suspending solution, evaluated on day 30): 92 [6 of 8 alive] and 144 % of control; T/C (dose: 400.0 mg/kg/injection, schedule: Q01DX017 (ip), vehicle: steroid suspending solution, evaluated on day 40): 138 % of control; T/C (dose: 400.0 mg/kg/injection, schedule: Q01DX017 (ip), vehicle: steroid suspending solution, evaluated on day 45): 138 % of control; T/C (dose: 400.0 mg/kg/injection, schedule: Q01DX017 (ip), vehicle: steroid suspending solution, evaluated on day 50): 144 % of control; T/C (dose: 400.0 mg/kg/injection, schedule: Q01DX017 (ip), vehicle: steroid suspending solution, evaluated on day 54): 122 [7 of 8 alive] and 150 % of control [7 of 8 alive]; T/C (dose: 400.0 mg/kg/injection, schedule: Q01DX017 (ip), vehicle: steroid suspending solution, evaluated on day 60): 111 % of control; T/C (dose: 400.0 mg/kg/injection, schedule: Q01DX017 (ip), vehicle: steroid suspending solution, evaluated on day 69): 133 % of control; T/C (dose: 500.0 mg/kg/injection, schedule: Q01DX009 (ip), vehicle: Klucel (hydroxypropylcellulose) (HPC), evaluated on day 5): 101 and 137 % of control; T/C (dose: 500.0 mg/kg/injection, schedule: Q01DX009 (ip), vehicle: Klucel (hydroxypropylcellulose) (HPC), evaluated on day 27): 101 % of control [7 of 8 alive]; T/C (dose: 500.0 mg/kg/injection, schedule: Q01DX009 (ip), vehicle: Klucel (hydroxypropylcellulose) (HPC), evaluated on day 30): 95 [6 of 8 alive], 136, 155 % of control; T/C (dose: 500.0 mg/kg/injection, schedule: Q01DX009 (ip), vehicle: Klucel (hydroxypropylcellulose) (HPC), evaluated on day 33): 172 % of control; T/C (dose: 500.0 mg/kg/injection, schedule: Q01DX011 (ip), vehicle: Klucel (hydroxypropylcellulose) (HPC), evaluated on day 5): 131 % of control; T/C (dose: 500.0 mg/kg/injection, schedule: Q01DX011 (ip), vehicle: Klucel (hydroxypropylcellulose) (HPC), evaluated on day 46): 127 % of control; T/C (dose: 500.0 mg/kg/injection, schedule: Q01DX012 (ip), vehicle: Klucel (hydroxypropylcellulose) (HPC), evaluated on day 5): 146 % of control; T/C (dose: 500.0 mg/kg/injection, schedule: Q01DX012 (ip), vehicle: Klucel (hydroxypropylcellulose) (HPC), evaluated on day 46): 144 % of control; T/C (dose: 500.0 mg/kg/injection, schedule: Q01DX015 (ip), vehicle: Klucel (hydroxypropylcellulose) (HPC), evaluated on day 5): 96 and 99 % of control; T/C (dose: 500.0 mg/kg/injection, schedule: Q01DX015 (ip), vehicle: Klucel (hydroxypropylcellulose) (HPC), evaluated on day 7): 106 % of control; T/C (dose: 500.0 mg/kg/injection, schedule: Q01DX015 (ip), vehicle: Klucel (hydroxypropylcellulose) (HPC), evaluated on day 20): 106 % of control [7 of 8 alive]; T/C (dose: 500.0 mg/kg/injection, schedule: Q01DX015 (ip), vehicle: Klucel (hydroxypropylcellulose) (HPC), evaluated on day 33): 100 % of control; T/C (dose: 500.0 mg/kg/injection, schedule: Q01DX015 (ip), vehicle: Klucel (hydroxypropylcellulose) (HPC), evaluated on day 38): 94 % of control; T/C (dose: 500.0 mg/kg/injection, schedule: Q01DX017 (ip), vehicle: Klucel (hydroxypropylcellulose) (HPC), evaluated on day 5): 79 and 96 % of control; T/C (dose: 500.0 mg/kg/injection, schedule: Q01DX017 (ip), vehicle: Klucel (hydroxypropylcellulose) (HPC), evaluated on day 38): 100 % of control; survivor count (dose: 500.0 mg/kg/injection, schedule: Q01DX017 (ip), vehicle: Klucel (hydroxypropylcellulose) (HPC)): 8 of 8; T/C (dose: 800.0 mg/kg/injection, schedule: Q01DX009 (ip), vehicle: Klucel (hydroxypropylcellulose) (HPC), evaluated on day 24): 127 % of control [7 of 8 alive]; T/C (dose: 800.0 mg/kg/injection, schedule: Q01DX009 (ip), vehicle: Klucel (hydroxypropylcellulose) (HPC), evaluated on day 30): 116 [5 of 6 alive] and 161 % of control; survivor count (dose: 800.0 mg/kg/injection, schedule: Q01DX009 (ip), vehicle: Klucel (hydroxypropylcellulose) (HPC)): 7 of 8; T/C (dose: 800.0 mg/kg/injection, schedule: Q01DX017 (ip), vehicle: steroid suspending solution, evaluated on day 5): 26 % of control; T/C (dose: 800.0 mg/kg/injection, schedule: Q01DX017 (ip), vehicle: steroid suspending solution, evaluated on day 30): 127 % of control [6 of 8 alive]; T/C (dose: 800.0 mg/kg/injection, schedule: Q01DX017 (ip), vehicle: steroid suspending solution, evaluated on day 50): 105 % of control; T/C (dose: 800.0 mg/kg/injection, schedule: Q01DX017 (ip), vehicle: steroid suspending solution, evaluated on day 54): 133 % of control; survivor count (dose: 800.0 mg/kg/injection, schedule: Q01DX017 (ip), vehicle: steroid suspending solution): 2 of 8, 5 of 8, 6 of 8; survivor count (dose: 800.0 mg/kg/injection, schedule: Q## X017 (ip), vehicle: steroid suspending solution): 2 of 8; T/C (dose: 833.0 mg/kg/injection, schedule: Q01DX013 (ip), vehicle: Klucel (hydroxypropylcellulose) (HPC), evaluated on day 7): 129 % of control; T/C (dose: 833.0 mg/kg/injection, schedule: Q01DX013 (ip), vehicle: Klucel (hydroxypropylcellulose) (HPC), evaluated on day 24): 133 % of control [7 of 8 alive]
